Consider one molecule from publication PMC10588558, “On the regulation of human D‐aspartate oxidase” (Protein Science : A Publication of the Protein Society, 2023).

No constants are given. Whether binding was seen depends on the method and setting. In cells and extracts the contact can be indirect. Some binding calls cover weakened binding; strength is not graded here. Where a sequence is shown, tags or fusion partners need not be part of it.

This experiment addresses T1, 3xFLAG-hDASPO 341 expressed in U87 cells (human) (UniProt Q99489).
T1 sequence: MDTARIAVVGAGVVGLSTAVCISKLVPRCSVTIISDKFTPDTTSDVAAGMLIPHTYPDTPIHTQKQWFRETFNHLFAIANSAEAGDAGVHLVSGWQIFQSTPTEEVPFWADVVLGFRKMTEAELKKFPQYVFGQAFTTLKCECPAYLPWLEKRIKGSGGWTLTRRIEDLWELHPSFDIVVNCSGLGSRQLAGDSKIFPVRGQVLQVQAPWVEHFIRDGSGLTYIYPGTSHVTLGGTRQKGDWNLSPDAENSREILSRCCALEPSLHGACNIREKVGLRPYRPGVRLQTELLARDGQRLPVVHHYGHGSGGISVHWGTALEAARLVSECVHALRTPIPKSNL
The experiment is described as follows: proximity ligation; Duolink In Situ Orange PLA on fixed U87 cells stably expressing pLG72-ECFP and transfected with 3xFLAG-hDASPO 341 (24, 48, 72 h); mouse anti-FLAG and rabbit anti-pLG72 antibodies; confocal microscopy.

B1: pLG72 R30K variant (Arg30Lys), recombinant (natural protein, UniProt P59103 1-153, looked up)
chain: MLEKLMGADSLQLFRSRYTLGKIYFIGFQKSILLSKSENSLNSIAKETEEGRETVTRKEGWKRRHEDGYLEMAQRHLQRSLCPWVSYLPQPYAELEEVSSHVGKVFMARNYEFLAYEASKDRRQPLERMWTCNYNQQKDQSCNHKEITSTKAE
notes: primate-specific protein pLG72 (18 kDa), Arg30Lys variant related to schizophrenia susceptibility; kept in 0.06% N-lauroyl sarcosine; also called R30K pLG72; source: E. coli BL21-Codon plus (DE3)-RIL, recovered from insoluble inclusion bodies, purified
Turning to B1, the binding entry was “binds”.
